Results: patent US20150232546A1 (THROMBOGENICS, published 2015)
Numbering of substitutions follows the chain as printed. These are yes or no findings as the source states them, for the method shown. A result given as binding can be weak or reduced; the word gives no strength.

Chains of the proteins cited; added tags and fusions are not shown. Lines headed by an entry give the natural chain unless they say otherwise; changes in a name come on top.
UniProt Q9NRA1: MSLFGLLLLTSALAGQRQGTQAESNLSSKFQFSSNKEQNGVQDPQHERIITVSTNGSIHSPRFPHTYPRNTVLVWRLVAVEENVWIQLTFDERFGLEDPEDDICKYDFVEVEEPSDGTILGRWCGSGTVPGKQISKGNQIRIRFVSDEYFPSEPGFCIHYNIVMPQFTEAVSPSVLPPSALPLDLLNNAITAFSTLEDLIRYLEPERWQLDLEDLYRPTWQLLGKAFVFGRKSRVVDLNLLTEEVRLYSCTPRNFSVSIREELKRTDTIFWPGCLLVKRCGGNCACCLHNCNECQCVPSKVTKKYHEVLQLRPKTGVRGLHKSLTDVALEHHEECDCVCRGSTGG

Experiments:
[1] = target: Recombinant human PDGF-C from R&D Systems (1687-CC/CF; Val235-Gly345) (human) (UniProt Q9NRA1); assay: competition ELISA: biotinylated PDGF-C pre-incubated with antibody, then added to coated PDGF-Rα/Fc; blocked partner PDGF-Rα/Fc; x axis fold molar excess Ab/PDGF-C
[2] = target: Recombinant human PDGF-C from R&D Systems (1687-CC/CF; Val235-Gly345) (human) (UniProt Q9NRA1); assay: SPR as in Example 3

B1: anti-PDGF-C antibody 5A2 (antibody, IgG2b, V domains shown)
VH: EVQLVESGGDLVKPGGSLKLSCAASGFTFSNYGMSWVRQTPDKRLEWVATIGSGGHYTYYPDSVKGRFTISRDSAKSTLYLQMSSLKSEDTAIYYCARQAPLWDCSDYWGQGTTLTVSS
VL: DVLMTQTPLSLPVSLGDQASISCRSNQSIVHSNGDTYLEWYLQKPGQSPKLLIYKVSNRFSGVPDRFSGSGSGTDFTLKISRVEAEDLGVYYCFQGSHVPPTFGGGTKLEIK
notes: Mouse monoclonal from hybridoma, IgG2b, kappa; also called mAb 5A2; hybridoma LMBP 9484CB
- binding [1]: binds

B2: anti-PDGF-C antibody 2D3 (antibody, IgG1, V domains shown)
VH: B1 VH with H56S, S77N, I93M, C105Y
VL: B1 VL with S28T, K50N
notes: Mouse monoclonal from hybridoma, IgG1, kappa; also called mAb 2D3; hybridoma LMBP 9483CB
- binding [1]: binds

B3: anti-PDGF-C antibody 16B1 (antibody, IgG1, V domains shown)
VH: B1 VH with H56S, S77N, I93M, C105Y
VL: B1 VL
notes: Mouse monoclonal from hybridoma, IgG1, kappa; VH same as 2D3, VL same as 5A2; also called mAb 16B1; hybridoma LMBP 9486CB
- binding [1]: binds

B4: anti-PDGF-C antibody 29H1 (antibody, IgG1, V domains shown)
VH: B1 VH with K87R, E89D
VL: B1 VL with K50N
notes: Mouse monoclonal from hybridoma, IgG1, kappa; also called mAb 29H1; hybridoma LMBP 9487CB
- binding [1]: binds

B5: anti-PDGF-C antibody 5H7 (antibody, IgG1, V domains shown)
VH: EVQLVESGGDLVKPGGSLKLSCAASGFTFSSYGMSWVRQTPDKRLEWVATIGYGGSFTYYPDSMKGRFTISRDNAKNTLFLQMSSLKSEDTAIYYCVRQAPLWDYFDYWGQGTTLTVSS
VL: B1 VL with N26S, S28T, N33D, D35T, P45A
notes: Mouse monoclonal from hybridoma, IgG1, kappa; also called mAb 5H7; hybridoma LMBP 9485CB
- binding [1]: binds

B6: Humanized 5H7 anti-PDGF-C antibody (antibody, V domains shown)
VH: EVQLLESGGGLVQPGGSLRLSCAASGFTFSSYGMSWVRQTPGKGLEWVATIGYGGSFTYYPDSMKGRFTISRDNAKNTLYLQMNSLRAEDTAVYYCARQAPLWDYFDYWGQGTLLTVSS
VL: DVVMTQSPLSLPVTLGQPASISCRSSQTIVHSDGTTYLEWYLQKPGQSPRLLIYKVSNRFSGVPDRFSGSGSGTDFTLKISRVEAEDVGVYYCFQGSHVPPTFGQGTKLEIK
notes: also called humanized mAb 5H7
- binding [2]: binds
